Test results reported in patent US20120220564A1, “SELECTIVE CALCIUM CHANNEL MODULATORS” (Zalicus Pharmaceuticals Ltd., priority 2009, published 2012).
Some entries share one result that the patent states for a list of compounds.

Amino acid sequences for entries named in this document (tags omitted). A change or cut given only in a name is not applied to a line headed by its entry.
UniProt O95180: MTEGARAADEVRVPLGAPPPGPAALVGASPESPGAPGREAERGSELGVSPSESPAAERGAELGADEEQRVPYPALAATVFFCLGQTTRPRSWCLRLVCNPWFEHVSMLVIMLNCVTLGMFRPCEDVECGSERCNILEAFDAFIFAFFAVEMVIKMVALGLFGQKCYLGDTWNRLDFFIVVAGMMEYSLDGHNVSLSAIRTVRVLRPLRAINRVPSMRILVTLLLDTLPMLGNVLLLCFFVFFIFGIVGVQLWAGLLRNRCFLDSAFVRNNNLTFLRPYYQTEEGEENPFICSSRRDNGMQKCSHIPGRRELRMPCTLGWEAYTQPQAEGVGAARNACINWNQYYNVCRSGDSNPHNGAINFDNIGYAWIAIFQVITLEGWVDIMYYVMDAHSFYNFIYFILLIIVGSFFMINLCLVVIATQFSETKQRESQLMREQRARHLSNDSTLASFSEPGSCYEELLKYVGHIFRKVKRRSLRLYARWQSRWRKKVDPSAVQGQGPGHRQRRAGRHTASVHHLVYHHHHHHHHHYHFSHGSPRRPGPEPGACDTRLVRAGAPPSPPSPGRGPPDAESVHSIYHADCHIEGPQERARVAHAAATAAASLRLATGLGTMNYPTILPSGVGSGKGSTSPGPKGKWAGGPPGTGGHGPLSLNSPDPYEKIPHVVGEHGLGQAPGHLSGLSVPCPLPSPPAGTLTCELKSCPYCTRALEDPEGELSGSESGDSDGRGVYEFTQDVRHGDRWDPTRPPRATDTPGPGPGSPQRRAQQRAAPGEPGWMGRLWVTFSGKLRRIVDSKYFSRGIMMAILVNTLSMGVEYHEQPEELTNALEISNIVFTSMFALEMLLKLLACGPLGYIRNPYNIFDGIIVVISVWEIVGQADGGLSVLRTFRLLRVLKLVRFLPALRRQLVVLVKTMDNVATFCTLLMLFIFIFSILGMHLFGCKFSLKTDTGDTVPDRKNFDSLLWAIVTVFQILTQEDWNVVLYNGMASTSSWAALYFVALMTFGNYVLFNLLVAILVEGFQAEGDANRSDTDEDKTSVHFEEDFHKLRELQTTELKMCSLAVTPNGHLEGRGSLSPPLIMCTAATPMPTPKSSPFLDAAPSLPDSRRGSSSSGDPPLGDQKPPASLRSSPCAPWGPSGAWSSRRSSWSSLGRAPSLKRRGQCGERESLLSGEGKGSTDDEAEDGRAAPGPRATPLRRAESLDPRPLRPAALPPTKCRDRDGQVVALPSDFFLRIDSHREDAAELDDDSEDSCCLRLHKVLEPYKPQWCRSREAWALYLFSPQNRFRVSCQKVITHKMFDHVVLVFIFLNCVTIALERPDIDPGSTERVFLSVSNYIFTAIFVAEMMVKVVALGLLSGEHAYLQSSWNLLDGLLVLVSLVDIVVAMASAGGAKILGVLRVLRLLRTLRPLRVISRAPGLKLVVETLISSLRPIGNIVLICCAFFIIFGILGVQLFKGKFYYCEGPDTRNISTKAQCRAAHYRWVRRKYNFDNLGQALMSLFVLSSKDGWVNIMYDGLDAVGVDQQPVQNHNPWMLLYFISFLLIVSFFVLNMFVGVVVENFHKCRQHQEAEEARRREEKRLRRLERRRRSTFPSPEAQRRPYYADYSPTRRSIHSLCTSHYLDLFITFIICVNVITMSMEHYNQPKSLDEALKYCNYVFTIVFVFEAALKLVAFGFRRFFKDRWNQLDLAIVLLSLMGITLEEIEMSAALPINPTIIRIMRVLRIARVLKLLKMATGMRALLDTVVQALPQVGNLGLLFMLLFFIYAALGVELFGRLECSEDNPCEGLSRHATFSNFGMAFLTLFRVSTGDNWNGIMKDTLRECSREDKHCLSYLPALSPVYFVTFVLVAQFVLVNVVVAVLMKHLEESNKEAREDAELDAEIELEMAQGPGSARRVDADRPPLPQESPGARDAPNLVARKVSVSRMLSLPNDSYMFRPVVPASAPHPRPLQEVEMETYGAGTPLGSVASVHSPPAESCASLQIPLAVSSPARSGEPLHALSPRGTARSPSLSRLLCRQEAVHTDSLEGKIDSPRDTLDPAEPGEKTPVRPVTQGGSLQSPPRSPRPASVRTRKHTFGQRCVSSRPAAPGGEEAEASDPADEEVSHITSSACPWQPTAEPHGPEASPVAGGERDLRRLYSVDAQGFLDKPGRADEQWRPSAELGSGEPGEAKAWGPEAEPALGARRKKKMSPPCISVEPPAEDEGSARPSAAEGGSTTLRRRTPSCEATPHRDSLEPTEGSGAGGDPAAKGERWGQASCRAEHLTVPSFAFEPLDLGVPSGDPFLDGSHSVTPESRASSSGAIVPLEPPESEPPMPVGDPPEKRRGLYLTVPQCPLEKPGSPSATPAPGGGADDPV

Biological target: T1, α1H (CaV 3.2) (Homo sapiens, UniProt O95180)
T1 construct: expressed in transfected cells; host or cells: HEK 293
Test: T-type calcium channel block, whole cell patch clamp
Assay type: cell-based
Details: channel not named, fits the α1H column; read-out: exhibited activity at less than (IC50, summary of Table 4)
Experimental: T-type calcium channel blocking activity was assayed in human embryonic kidney cells, HEK 293 (Invitrogen), stably transfected with the T-type calcium channel subunits. Briefly, cells were cultured in Dulbecco's modified eagle medium (DMEM) supplemented with 10% fetal bovine serum, 200 U/ml penicillin, and 0.2 mg/mL streptomycin at 37° C. with 5% CO2. At 85% confluency, cells were split with 0.25% trypsin/1 mM EDTA and plated at 10% confluency on glass coverslips. At 12 hours, the medium was replaced, and the cells stably transfected using a standard calcium phosphate protocol and the appropriate calcium channel cDNA's. Fresh DMEM was supplied, and the cells transferred to 28° C./5% CO2. Cells were incubated for 1 to 2 days prior to whole cell recording.
Standard patch-clamp techniques were employed to identify blockers of T-type currents. Briefly, previously described HEK cell lines stably expressing human α1G, α1H and α1I T-type channels were used for all the recordings (passage #: 4-20, 37° C., 5% CO2). […] Data were analyzed using Clampfit (Axon Instruments) and SigmaPlot 4.0 (Jandel Scientific). […]
Test compounds were dissolved in external solution, 0.1-0.01% DMSO. […] In Table 4, empty cells indicate that inhibition by the compound was not detected.

In the case of “N-(3,5- bis(trifluoromethyl) phenyl)-2-(1- (piperidine-3- carbonyl)piperidin-4- yl)acetamide [Compound 2]”, the IC50 is reported as less than 1000 nM.
